Source: article PMC4351679

Molecular target: HerA-C-His (Sulfolobus islandicus)
Test: pull-down; His-tagged bait on nickel-agarose beads; proteins mixed at 70°C for 30 min in 25 mM Tris-HCl pH 9.0, 200 mM NaCl; wash with 25 mM imidazole, elution with 250 mM imidazole; Western blot with protein-specific antibodies; both purified

binding | Binder
binds weakly | PIN-domain ATPase (SiRe_1432), recombinant, without tag (enzyme, UniProt F0NID4 1-505) MNDLMLDKSALLFGVSKYLEKGIITGNVLIHKSLLAELERESNDGLVSAEIALDEVKKLKDITERILVNFEIVGDDSKKGEANELSREYCLEKGCIIVTADETQKKICDAMGIQYNFLQPLKQGLSFESFFDDETMSLHIKEDTVPRAKKGKPGNWKFVNLSDKPMLSTDVRMIANEIINAVRLIKGSFVEIERRGSLIIQLGNYRVVITRPPLSDGWEITITRPVVRKRLEDYNLDERLIKRLEERAEGIIIAGAPGMGKTTFAQALAEYYMRLGKIVKTIESPRDMHLPPEITQYSKNYAEIGELHDILLLSRPDYTVYDEMRNDEDFKLYVDLRLAGVGMVGVVHATSPIDAIHRFVNRVDIGTIPNILDTIIFINSGNVSKVYTLEMTVKVPAGLKEADLARPVVEIKDLATGNTEYEIYVFGEQTMIVPVNRGITMSNMEFKISKIVNNIIPNATVKYEDGEYVIVIPKEEIGKYNRKLVQRLKRLEKKNNIKIKIKLSD
binds weakly | Hjc (SiRe_1431), recombinant (enzyme, UniProt F0NID3 1-143) MNAKKRKGSAVERNIVGKLRDKGFAVVRAPASGSKRKDPIPDIIALKSGVIILIEMKSRKDKEGKIYVRREQAEGIMEFARKSGGTLFLGVKKPGVLKFIPFDKLRRTETGNYVADSEIEGLDLEDLVRLVEAKVSKTLDNFL

No constants are given. Whether binding was seen depends on the method and setting. Binding calls can cover weak binding; strength is not graded here. Sequences can lack the tags named with a protein.
